Assay results from publication PMC6312201.

Tests used:
[1] = molecular target: T1, tyrosinase from Streptomyces castaneoglobisporus HUT6202 (Streptomyces castaneoglobisporus HUT6202) (UniProt Q83WS2); experiment: crystal structure; crystals of the copper-free complex grown by sitting-drop vapor diffusion (25% PEG3350, 0.2 M NaNO3, 0.1 M Na-HEPES pH 6.5), soaked in CuSO4 and NH2OH at 25 °C (anaerobic or aerobic, 10 min to 24 h), cryo-trapped; synchrotron data, 1.16-1.70 Å; both purified
T1 sequence: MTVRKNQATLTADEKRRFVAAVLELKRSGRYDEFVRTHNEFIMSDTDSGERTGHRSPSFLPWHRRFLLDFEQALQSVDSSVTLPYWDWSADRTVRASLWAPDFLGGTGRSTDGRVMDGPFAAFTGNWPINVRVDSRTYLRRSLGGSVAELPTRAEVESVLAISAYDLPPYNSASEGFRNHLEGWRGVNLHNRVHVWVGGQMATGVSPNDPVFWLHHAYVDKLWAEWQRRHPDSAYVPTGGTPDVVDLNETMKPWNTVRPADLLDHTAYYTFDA

[2] = molecular target: T2, H63F-mutated tyrosinase, in which the His63 residue is replaced with phenylalanine (Streptomyces castaneoglobisporus HUT6202) (UniProt Q83WS2); experiment: as above
T2 sequence: T1 sequence with H63F

| Substance | binding [1] | binding [2] |
| --- | --- | --- |
| caddie Y98F mutant, in which the Tyr98 residue is replaced with phenylalanine (Streptomyces castaneoglobisporus HUT6202) | binds |  |
| caddie protein (orf378 gene product) from Streptomyces castaneoglobisporus HUT6202 | binds | binds |

Residue numbers refer to the chain shown, from its start. No constants are given. Whether binding was seen depends on the method and setting. Binding calls can cover weak binding; strength is not graded here. Where a sequence is shown, tags or fusion partners need not be part of it.
